# Values joined by “and” are separate entries in the source; they are usually repeats but may differ in a detail not shown here. Equal entries are not always repeated. Some of the results follow. For some of these results: The source does not settle which construct or isoform was used.
# Experiments:
# Assay in all cases: protein microarray (ProtoArray v5.0), streptavidin-Alexa Fluor 647
# Conditions in all cases: 3'-biotin; 20 mM Tris (pH 7.5), 5 mM MgCl2, 100 mM KCl, 0.1% Tween-20, A/T-rich and random oligonucleotide blockers; temperature not stated; high values mean tight binding
# [1] = tested on: ISG20 (human)
# [2] = tested on: ISGF3G (human)
# [3] = tested on: ITGB1BP3 (human)
# [4] = tested on: ITM2A (human)
# [5] = target: ITM2B (UniProt Q9Y287)
# [6] = tested on: ITPA (human)
# [7] = tested on: IZUMO1 (human)
# [8] = tested on: Ig gamma-1 chain C region (human)
# [9] = tested on: Ig lambda chain C regions (human)
# [10] = tested on: Immunoglobulin iota chain (human)
sequence,measurement,setting,value
GGGAGGCTGAGGCAGG [G4-1 biotinylated (PQS2)],binding signal,[1],-0.299 z-score
same,binding signal,[2],-0.343 z-score
same,binding signal,[3],-0.323 z-score
same,binding signal,[4],-0.318 z-score
same,binding signal,[5],-0.308 z-score
same,binding signal,[6],-0.301 z-score
same,binding signal,[7],-0.302 z-score
same,binding signal,[8],-0.273 z-score and -0.317 z-score and -0.302 z-score
same,binding signal,[9],-0.329 z-score
same,binding signal,[10],-0.281 z-score

# Source: paper PMC5996148
